Measurements published in the supplement of paper PMC10849652.
The list shows a part of the results.

By UniProt entry, the sequences of proteins in these tests, tags left out. Where a name states a change or a piece, a line headed by the entry shows the natural chain unless it says otherwise.
UniProt P49591: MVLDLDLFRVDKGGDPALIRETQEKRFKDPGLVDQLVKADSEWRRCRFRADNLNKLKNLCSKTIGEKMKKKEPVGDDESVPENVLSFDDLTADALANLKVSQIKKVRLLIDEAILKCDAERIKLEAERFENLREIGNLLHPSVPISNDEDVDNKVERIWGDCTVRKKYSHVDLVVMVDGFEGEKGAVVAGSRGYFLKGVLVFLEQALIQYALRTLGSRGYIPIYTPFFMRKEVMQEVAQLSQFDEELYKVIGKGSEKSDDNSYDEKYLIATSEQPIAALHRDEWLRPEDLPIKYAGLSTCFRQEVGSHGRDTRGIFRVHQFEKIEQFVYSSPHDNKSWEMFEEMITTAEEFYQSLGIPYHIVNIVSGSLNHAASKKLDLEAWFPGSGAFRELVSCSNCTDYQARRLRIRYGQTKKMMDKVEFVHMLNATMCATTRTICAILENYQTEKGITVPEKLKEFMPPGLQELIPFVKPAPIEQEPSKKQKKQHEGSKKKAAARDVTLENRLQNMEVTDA

Tests used:
Experiment in all cases: log2 fold change, soluble protein after heating vs DMSO (PISA); higher = thermal stabilisation; K562 cells, 10 uM, 30 min; active = over 0.2 and 3.5 SD of the protein, either way, in both replicates (recomputed)
[1] = compound: CNC(=O)c1ccc(Nc2ncc(C(F)(F)F)c(NCc3nccnc3N(C)S(C)(=O)=O)n2)cc1 [defactinib]
Method in brief: (§1)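 Soluble protein was defined as the supernatant after 21,000xg for 90 min. It came from K562 cells at 2×10^6 cells/mL given 10 μM compound for 30 min, heated in aliquots for 3 min across 48°C-58°C, pooled, and extracted in PBS with 0.5% NP-40 at 4°C, and was quantified by TMTpro 16plex LC-MS/MS with equalised channel sums. Thermal stability against control samples, from duplicates, is reported as log2 fold change.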

[2] = compound: CNCc1ccc(-c2[nH]c3cc(F)cc4c3c2CCNC4=O)cc1 [rucaparib]
Method in brief: as §1

[3] = compound: CNc1nc(-c2ccc3c(N)n[nH]c3c2)cc(N2C[C@@H](C(=O)NC3CCCCC3)CC[C@H]2C)n1
Method in brief: as §1

[4] = compound: COC(=O)N[C@@H](C)CNc1nccc(-c2cn(C(C)C)nc2-c2cc(Cl)cc(NS(C)(=O)=O)c2F)n1 [encorafenib]
Method in brief: as §1

[5] = compound: COC(=O)[C@H](CCSC)NC(=O)C1=C(C=C(C=C1)NC[C@H](CS)N)C2=CC=CC=C2
Method in brief: as §1

[6] = compound: COC1=CC=C(C=C1)CN2C=CC3=C2C=C(C=C3)C(=O)NO
Method in brief: as §1

[7] = compound: CON(C)C(=O)N1N=C(c2cc(F)ccc2F)S[C@@]1(CCCN)c1ccccc1 [filanesib]
Method in brief: as §1

[8] = compound: CO[C@H]1C[C@@H]2CC[C@@H](C)[C@@](O)(O2)C(=O)C(=O)N2CCCC[C@H]2C(=O)O[C@H]([C@H](C)C[C@@H]2CC[C@H](n3cnnn3)[C@H](OC)C2)CC(=O)[C@H](C)/C=C(\C)[C@@H](O)[C@@H](OC)C(=O)[C@H](C)C[C@H](C)/C=C/C=C/C=C/1C [zotarolimus]
Method in brief: as §1

[9] = compound: COc1cc(C(=O)O)ccc1NC(=O)[C@@H]1N[C@@H](CC(C)(C)C)[C@](C#N)(c2ccc(Cl)cc2F)[C@H]1c1cccc(Cl)c1F [idasanutlin]
Method in brief: as §1

[10] = compound: COc1cc(Nc2ncc3c(n2)-c2ccc(Cl)cc2C(c2c(F)cccc2OC)=NC3)ccc1C(=O)O [alisertib]
Method in brief: as §1

[11] = compound: COc1cc2nc(-c3cc(F)ccc3O)nc(N[C@@H]3CNC[C@H]3C(C)(C)O)c2cc1OC
Method in brief: as §1

[12] = compound: COc1cc2ncnc(Nc3ccc(F)c(Cl)c3)c2cc1OCCCN1CCOCC1 [gefitinib]
Method in brief: as §1

[13] = compound: COc1cccc2cc(-c3nc([C@H]4CC[C@H](C(=O)O)CC4)n4ncnc(N)c34)[nH]c12
Method in brief: as §1

[14] = compound: CS(=O)(=O)CCNCc1ccc(-c2ccc3ncnc(Nc4ccc(OCc5cccc(F)c5)c(Cl)c4)c3c2)o1 [lapatinib]
Method in brief: as §1

[15] = compound: CS(=O)(=O)N1CCN(Cc2cc3nc(-c4cccc5[nH]ncc45)nc(N4CCOCC4)c3s2)CC1 [pictilisib]
Method in brief: as §1

[16] = compound: CS(=O)(=O)c1ccc(-c2cnc(N)c(C(=O)Nc3ccccc3)n2)cc1
Method in brief: as §1

[17] = compound: C[C@@H](Oc1cc(-c2cnn(C3CCNCC3)c2)cnc1N)c1c(Cl)ccc(F)c1Cl [crizotinib]
Method in brief: as §1

[18] = compound: C[C@@H]1COCCN1C2=NC(=NC(=C2)C3(CC3)S(=O)(=O)C)C4=C5C=CNC5=CC=C4
Method in brief: as §1

[19] = compound: C[C@H](C1=CC=C(C=C1)C(=O)NC2=C3C=CNC3=NC=C2)N
Method in brief: as §1

[20] = compound: C[C@H](Nc1ncnc2nc[nH]c12)c1cc2cccc(Cl)c2c(=O)n1-c1ccccc1 [duvelisib]
Method in brief: as §1

[21] = compound: Cc1cc(Nc2cc(CN3CCOCC3)c3nc(C)c(Cc4ccc(Cl)cc4F)n3n2)n[nH]1 [gandotinib]
Method in brief: as §1

[22] = compound: Cc1cc(Nc2cc(N3CCN(C)CC3)nc(Sc3ccc(NC(=O)C4CC4)cc3)n2)n[nH]1 [tozasertib]
Method in brief: as §1

[23] = compound: Cc1cc(SCc2sc(-c3ccc(C(F)(F)F)cc3)nc2C)ccc1OCC(=O)O
Method in brief: as §1

[24] = compound: Cc1ccc(-n2nc(C(C)(C)C)cc2NC(=O)Nc2ccc(OCCN3CCOCC3)c3ccccc23)cc1 [doramapimod]
Method in brief: as §1

[25] = compound: Cc1ccc(C(=O)N(CCCN)[C@@H](c2nc3cc(Cl)ccc3c(=O)n2Cc2ccccc2)C(C)C)cc1 [ispinesib]
Method in brief: as §1

[26] = compound: Cc1ccc(NC(=O)c2ccc(CN3CC[C@H](N(C)C)C3)c(C(F)(F)F)c2)cc1Nc1nccc(-c2cncnc2)n1 [bafetinib]
Method in brief: as §1

[27] = compound: Cc1cccc(CC(=O)N2CCc3c2ccc(-c2cn(C)c4ncnc(N)c24)c3F)n1
Method in brief: as §1

[28] = compound: Cc1cn(-c2cc(NC(=O)c3ccc(C)c(Nc4nccc(-c5cccnc5)n4)c3)cc(C(F)(F)F)c2)cn1 [nilotinib]
Method in brief: as §1

[29] = compound: Cc1nc(Nc2n[nH]c3c2CN(C(=O)N[C@H](CN(C)C)c2ccccc2)C3(C)C)c2sccc2n1
Method in brief: as §1

[30] = compound: Cc1nc(Nc2ncc(C(=O)Nc3c(C)cccc3Cl)s2)cc(N2CCN(CCO)CC2)n1 [dasatinib]
Method in brief: as §1

[31] = compound: Cc1ncc(-c2ccnc(Nc3ccc(S(C)(=O)=O)cc3)n2)n1C(C)C
Method in brief: as §1

[32] = compound: Cc1sc2c(c1C)C(c1ccc(Cl)cc1)=N[C@@H](CC(=O)OC(C)(C)C)c1nnc(C)n1-2
Method in brief: as §1

[33] = compound: Cn1cc(-c2ccc3c(c2)CCN3C(=O)Cc2cccc(C(F)(F)F)c2)c2c(N)ncnc21
Method in brief: as §1

[34] = compound: Cn1cc(-c2ccc3nnc(C(F)(F)c4ccc5ncccc5c4)n3n2)cn1
Method in brief: as §1

[35] = compound: Cn1cncc1[C@@](N)(c1ccc(Cl)cc1)c1ccc2c(c1)c(-c1cccc(Cl)c1)cc(=O)n2C [tipifarnib]
Method in brief: as §1

[36] = compound: FC(F)(F)c1ccc(/C=C/c2nc(COc3ccc(CCCCn4ccnn4)cc3)co2)cc1 [mubritinib]
Method in brief: as §1

[37] = compound: NC(=O)Nc1cc(-c2cccc(F)c2)sc1C(=O)N[C@H]1CCCNC1
Method in brief: as §1

[38] = compound: NC(=O)c1cnc(N[C@@H]2CCCC[C@@H]2N)nc1Nc1cccc(-n2nccn2)c1
Method in brief: as §1

[39] = compound: NC1(c2ccc(-c3nc4ccn5c(=O)[nH]nc5c4cc3-c3ccccc3)cc2)CCC1
Method in brief: as §1

[40] = compound: NCC(=O)Nc1ccc(-n2nc(C(F)(F)F)cc2-c2ccc3c(ccc4ccccc43)c2)cc1
Method in brief: as §1

[41] = compound: Nc1ccccc1NC(=O)c1ccc(CNC(=O)OCc2cccnc2)cc1 [entinostat]
Method in brief: as §1

[42] = compound: O=C(CCCCCCC(=O)Nc1ccccc1)NO [vorinostat]
Method in brief: as §1

[43] = compound: O=C(CCCCCCNC(=O)c1cnc(N(c2ccccc2)c2ccccc2Cl)nc1)NO [citarinostat]
Method in brief: as §1

[44] = compound: O=C(O)c1ccc2c(c1)nc(Nc1cccc(Cl)c1)c1ccncc12 [silmitasertib]
Method in brief: as §1

[45] = compound: O=C1NC(=O)C(c2cnc3ccccn23)=C1c1cn2c3c(cc(F)cc13)CN(C(=O)N1CCCCC1)CC2
Method in brief: as §1

[46] = compound: c1cc(OCCN2CCCCC2)cc(-c2n[nH]c3ccc(-c4nnc[nH]4)cc23)c1
Method in brief: as §1

[47] = compound: c1ccc([C@@H]2C[C@H]2NC2CCNCC2)cc1
Method in brief: as §1

[48] = compound: c1cn2cc(-c3ccc4cn[nH]c4c3)nc(Nc3ccc(N4CCOCC4)cc3)c2n1 [entospletinib]
Method in brief: as §1

Measured: log2 fold change

SARS (UniProt P49591)
inactive: [1] -0.044 | [2] -0.063 | [3] 0.001 | [4] -0.015 | [5] -0.006 | [6] 0.03 | [7] -0.074 | [8] -0.004 | [9] -0.002 | [10] -0.043 | [11] -0.03 | [12] -0.013 | [13] 0.034 | [14] -0.015 | [15] 0.025 | [16] 0.017 | [17] 0.022 | [18] 0.039 | [19] -0.041 | [20] 0.012 | [21] -0.009 | [22] -0.007 | [23] -0.013 | [24] -0.034 | [25] 0.059 | [26] -0.008 | [27] -0.026 | [28] -0.007 | [29] 0.027 | [30] -0.02 | [31] 0.015 | [32] 0 | [33] 0.033 | [34] -0.013 | [35] -0.02 | [36] 0.014 | [37] -0.019 | [38] 0.011 | [39] -0.002 | [40] -0.004 | [41] 0 | [42] -0.004 | [43] 0.014 | [44] -0.033 | [45] -0.008 | [46] -0.032 | [47] -0.004 | [48] -0.027
